Results on two molecules are retold here after publication PMC8213820.

Test [1] deals with recombinant RON13 dead kinase (Toxoplasma gondii). In words: HDX-MS; 60 pmol (1.3 uM) rRON13dk alone or with a threefold molar excess of RON4; 81.0% D2O, 22 °C, 3 sec, 30 sec, 5 min; 10 mM HEPES pH 7.5, 100 mM NaCl, 0.5 mM EDTA; both purified.
For test [2], the target named is recombinant RON13 dead kinase (rRON13dk) (Toxoplasma gondii). In words: HDX-MS; 1.3 uM (60 pmol) rRON13dk alone or preincubated with a threefold molar excess of recombinant RON4; exchange for 3, 30 and 300 s at room temperature in 96% D2O, 10 mM HEPES pH 7.5, 100 mM NaCl, 0.5 mM EDTA; both purified.

Results are given in words; binding and its absence hold for the method and conditions named. A result given as binding can be weak or reduced; the word gives no strength.

B1: recombinant dephosphorylated RON4 (protein, UniProt B6KJ32 27-984)
chain: SPPTPAPRMYPNMNERPLSAESRLTPGTYRSELHIDLKSPQKTASQSSLAPTGDNNSKVESIIAGSDTTPRSAEGTSESPPVPQLGTPPRPAPRRSKGEGERQPPTAAPRTSRSVDTGSGSDASTEQQAGGQKVVTPIPASKGIYPSLDELRRSQESNVDAGSGTSTNEGGGTSEGPQVPQSGIPPRTGRRRAKARNRKRHPTPASRESSSEDENQPPTTASRPSNGEGESQPPTAAPRTSRSVDTGSGSDASTEQQAGGQKVVTPIPASKGIYPNLDELRQTQEGEESAPQPADVTWFSMSVPMGVVDRRVSRALKEQFFQFLQHLSADYPKQVQTVYEFLGWVADKLPENEEEVQMFIDALNTTEAMVGKAARWIFKAIPERERETIYSSFYQMFRDKLPKKFFETAEGMNPDVGQYFSAEEPVAVTPEIPAKSEEDSEAAETPTPLRRQANVAAQVLHPLPAKGVTRREWIPWPKMQNAISKAHGPLTRVPEWTPVTGSCALGDGYTDIDVTKATTDVLFRITLLILQQIRRKKTERGKLEDDQALVALCSAAGAFVDAWQHQQQALILEDPGTPKAHAQLIERLRNAGKYFMKSYDETTGESDHQQWKKNKAEVSKLGKSALMKSCVKYIKASGDVATRPFDSGTAKYPSRSLYGGIANTLETPFADSEAVAKAVHDYAKEHKKPEKLVGLCGALQISGYFKKCFSDAGRLSSVSFFHQHVDGASVLVRTLARERPIGRHALSQAICDPNISAQYFEGAFRLFSSTVSQEWEKENLFAQLASWTGKEMVLAPSLEEQAAVPPAQPAYETVYGDEEDRIYRIHVSGRHSSPQEVLYVGGIPSTVKPQQVHVLGPTVSDESRRMIHPVRHRSRTAPSSEAASTAAESSDEDPLPAENATAFLGVTPQEEESDAYKHTLDFDAVSPRKNKNKENRISAPLKQSDTLIEESTSKTSEL
modifications: dephosphorylated with alkaline phosphatase (CIAP)
With B1, the binding entry in test [1] was “binds”.

B2: recombinant dephosphorylated RON4 (rRON4) (protein, UniProt B6KJ32 27-984)
chain: SPPTPAPRMYPNMNERPLSAESRLTPGTYRSELHIDLKSPQKTASQSSLAPTGDNNSKVESIIAGSDTTPRSAEGTSESPPVPQLGTPPRPAPRRSKGEGERQPPTAAPRTSRSVDTGSGSDASTEQQAGGQKVVTPIPASKGIYPSLDELRRSQESNVDAGSGTSTNEGGGTSEGPQVPQSGIPPRTGRRRAKARNRKRHPTPASRESSSEDENQPPTTASRPSNGEGESQPPTAAPRTSRSVDTGSGSDASTEQQAGGQKVVTPIPASKGIYPNLDELRQTQEGEESAPQPADVTWFSMSVPMGVVDRRVSRALKEQFFQFLQHLSADYPKQVQTVYEFLGWVADKLPENEEEVQMFIDALNTTEAMVGKAARWIFKAIPERERETIYSSFYQMFRDKLPKKFFETAEGMNPDVGQYFSAEEPVAVTPEIPAKSEEDSEAAETPTPLRRQANVAAQVLHPLPAKGVTRREWIPWPKMQNAISKAHGPLTRVPEWTPVTGSCALGDGYTDIDVTKATTDVLFRITLLILQQIRRKKTERGKLEDDQALVALCSAAGAFVDAWQHQQQALILEDPGTPKAHAQLIERLRNAGKYFMKSYDETTGESDHQQWKKNKAEVSKLGKSALMKSCVKYIKASGDVATRPFDSGTAKYPSRSLYGGIANTLETPFADSEAVAKAVHDYAKEHKKPEKLVGLCGALQISGYFKKCFSDAGRLSSVSFFHQHVDGASVLVRTLARERPIGRHALSQAICDPNISAQYFEGAFRLFSSTVSQEWEKENLFAQLASWTGKEMVLAPSLEEQAAVPPAQPAYETVYGDEEDRIYRIHVSGRHSSPQEVLYVGGIPSTVKPQQVHVLGPTVSDESRRMIHPVRHRSRTAPSSEAASTAAESSDEDPLPAENATAFLGVTPQEEESDAYKHTLDFDAVSPRKNKNKENRISAPLKQSDTLIEESTSKTSEL
On to B2, for which the binding result in test [2] is “binds”.
